Results: US9888688B2, “Tetrazolinone compounds and applications thereof” (Sumitomo Chemical Company, Limited, priority 2013, dated 2018)
Where two headings read alike, the source gives them in different places. Some of these results come from one statement about several compounds together.

System: cucumber powdery mildew fungus (Sphaerotheca fuliginea, a QoI-resistant strain, cytochrome b position 143 glycine to alanine)
Assay type: in vivo
Conditions: cucumber SAGAMI HANJIRO, 8 days

| Compound | area of lesion spots relative to that on an untreated plant (200 ppm foliar spray) [%] | area of lesion spots relative to that on an untreated plant (500 ppm foliar spray) [%] |
| --- | --- | --- |
| Cc1cc(-c2cc(C(F)(F)F)ccn2)c(C)cc1OCc1c(C)cccc1-n1nnn(C)c1=O [Present Compound 181] | ≤ 30 | ≤ 30 |
| CCc1cccc(-n2nnn(C)c2=O)c1COc1cc(C)c(-c2ccccn2)cc1C [Present Compound 220] | ≤ 30 | ≤ 30 |
| CCc1cccc(-c2ccc(OCc3c(C4CC4)cccc3-n3nnn(C)c3=O)c(C(F)(F)F)c2)n1 [Present Compound 133] | ≤ 30 |  |
| Cc1cc(-c2ncc(F)cn2)ccc1OCc1c(C)cccc1-n1nnn(C)c1=O [Present Compound 236] | ≤ 30 | ≤ 30 |
| Cc1cccc(-c2ccc(OCc3c(C4CC4)cccc3-n3nnn(C)c3=O)c(C(F)(F)F)c2)n1 [Present Compound 129] | ≤ 30 | ≤ 30 |
| Cc1ccc(-c2cc(Cl)c(OCc3c(C)cccc3-n3nnn(C)c3=O)cc2C)nn1 [Present Compound 241] | ≤ 30 |  |
| C=C(C)c1cccc(-c2ccc(OCc3c(C)cccc3-n3nnn(C)c3=O)c(C)c2)n1 [Present Compound 148] | ≤ 30 | ≤ 30 |
| COc1cccc(-n2nnn(C)c2=O)c1COc1cc(C)c(-c2ccc(F)cn2)cc1C [Present Compound 218] | ≤ 30 | ≤ 30 |
| Cc1cc(-c2ccccn2)c(C)cc1OCc1ccccc1-n1nnn(C)c1=O [Present Compound 166] | ≤ 30 | ≤ 30 |
| Cc1ccc(-c2cc(C)c(OCc3c(C)cccc3-n3nnn(C)c3=O)cc2C)nc1 [Present Compound 154] | ≤ 30 | ≤ 30 |
| CCc1cccc(-n2nnn(C)c2=O)c1COc1ccc(-c2cccc(C)n2)cc1C [Present Compound 51] | ≤ 30 | ≤ 30 |
| Cc1cc(-c2ccccn2)c(C)cc1OCc1c(C)cccc1-n1nnn(C)c1=O [Present Compound 152] | ≤ 30 | ≤ 30 |
| Cc1cc(-c2cccc(F)n2)c(C)cc1OCc1c(C)cccc1-n1nnn(C)c1=O [Present Compound 171] | ≤ 30 | ≤ 30 |
| Cc1ccnc(-c2ccc(OCc3c(Cl)cccc3-n3nnn(C)c3=O)c(C)c2)n1 [Present Compound 96] | ≤ 30 | ≤ 30 |
| CCc1cccc(-c2ccc(OCc3c(CC)cccc3-n3nnn(C)c3=O)c(C)c2)n1 [Present Compound 43] | ≤ 30 | ≤ 30 |
| Cc1cc(-c2cccnc2C)ccc1OCc1c(C)cccc1-n1nnn(C)c1=O [Present Compound 67] | ≤ 30 | ≤ 30 |
| Cc1ccc(-c2ccc(OCc3c(Cl)cccc3-n3nnn(C)c3=O)c(C)c2)nc1 [Present Compound 30] | ≤ 30 | ≤ 30 |
| Cc1ccnc(-c2cc(C)c(OCc3c(C)cccc3-n3nnn(C)c3=O)cc2C)c1 [Present Compound 164] | ≤ 30 |  |
| CCc1cccc(-n2nnn(C)c2=O)c1COc1ccc(-c2cnccc2Cl)cc1C [Present Compound 68] | ≤ 30 | ≤ 30 |
| Cc1cc(-c2ncccc2F)ccc1OCc1c(C2CC2)cccc1-n1nnn(C)c1=O [Present Compound 19] | ≤ 30 |  |
